Source: patent US20150166643A1 (Alexion, published 2015)
These are yes or no findings as the source states them, for the method shown. Some results given as binding are weak or reduced against the parent protein; the word gives no strength.

Protein sequences, listed by entry. Tags and fused reporters are not part of them. Lines headed by an entry give the natural chain unless they say otherwise; changes in a name come on top.
UniProt P00751: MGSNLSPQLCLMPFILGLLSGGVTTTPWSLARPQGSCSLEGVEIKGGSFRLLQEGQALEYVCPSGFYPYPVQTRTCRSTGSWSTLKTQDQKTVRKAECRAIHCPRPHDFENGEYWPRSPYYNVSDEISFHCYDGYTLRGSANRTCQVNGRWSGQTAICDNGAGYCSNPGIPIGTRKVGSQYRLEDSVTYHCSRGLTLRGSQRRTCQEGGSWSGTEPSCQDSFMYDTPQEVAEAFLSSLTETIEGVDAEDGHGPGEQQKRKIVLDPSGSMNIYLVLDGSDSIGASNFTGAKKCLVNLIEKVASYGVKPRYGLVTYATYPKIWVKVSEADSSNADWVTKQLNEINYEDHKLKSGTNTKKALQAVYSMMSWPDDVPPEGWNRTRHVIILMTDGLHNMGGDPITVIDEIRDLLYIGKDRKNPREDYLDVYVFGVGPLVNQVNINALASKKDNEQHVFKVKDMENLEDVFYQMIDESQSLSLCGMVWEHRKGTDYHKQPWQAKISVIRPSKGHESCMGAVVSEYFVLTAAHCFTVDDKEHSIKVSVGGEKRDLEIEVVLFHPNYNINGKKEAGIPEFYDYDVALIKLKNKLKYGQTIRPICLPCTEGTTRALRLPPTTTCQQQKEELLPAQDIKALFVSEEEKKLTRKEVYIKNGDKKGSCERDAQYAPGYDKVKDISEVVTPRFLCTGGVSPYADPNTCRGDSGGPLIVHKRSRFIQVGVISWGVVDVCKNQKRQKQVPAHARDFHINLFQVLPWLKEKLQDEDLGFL

Key:
[1] = biological target: human factor B (purified, Complement Technology A135) (human) (UniProt P00751); assay: SPR (Biacore), captured antibody, 200 nM soluble factor B flowed
[2] = biological target: human factor B (purified, Complement Technology A135) (human) (UniProt P00751); assay: ELISA, binding to fB
[3] = biological target: human factor B (purified, Complement Technology A135) (human) (UniProt P00751); assay: ELISA, human factor B coated at 0.5 ug/mL, detection with sheep anti-human kappa light chain HRP, abs 450 nm against nM antibody
[4] = biological target: human factor B (purified, Complement Technology A135) (human) (UniProt P00751); assay: SPR sensorgrams, captured antibody, soluble human factor B

Row | binding [1] | binding [2] | binding [3] | binding [4] | Binder
1 | binds | binds | binds | binds | CLS012 (TA106-derivative N31Q variant, full-length IgG2/4 mAb, expressed in CHO cells) (antibody, V domains shown, N-linked glycans on the heavy chain constant region, Human IgG2/4 full-length mAb; also called CLS012 mAb; TA106 variant N31Q) VH: EVQLVQSGAEVKKPGASVKVSCKASGYSFTDYYMTWVRQAPGQGLEWMGWINPNSGGTKYAQKFQGRVTMTRDTSISTAYMELSRLRSDDTAVYYCARGYYANSAWFAYWGQGTLVTVSS VL: DIVMTQSPDSLAVSLGERATINCKSSQSLLQSSTSKNYLAWYQQKPGQPPKLLIYWASTRESGVPDRFSGSGSGTDFTLTISSLQAEDVAVYYCKQVYNLPWTFGQGTKLEIKR
2 | binds | binds | binds |  | CLS013 (TA106-derivative S33A variant, full-length IgG2/4 mAb, expressed in CHO cells) (antibody, V domains shown, N-linked glycans on the heavy chain, Human IgG2/4 full-length mAb; also called CLS013 mAb; TA106 variant S33A) VH: EVQLVQSGAEVKKPGASVKVSCKASGYSFTDYYMTWVRQAPGQGLEWMGWINPNSGGTKYAQKFQGRVTMTRDTSISTAYMELSRLRSDDTAVYYCARGYYANSAWFAYWGQGTLVTVSS VL: DIVMTQSPDSLAVSLGERATINCKSSQSLLNSATSKNYLAWYQQKPGQPPKLLIYWASTRESGVPDRFSGSGSGTDFTLTISSLQAEDVAVYYCKQVYNLPWTFGQGTKLEIKR
